Measurements published in article PMC8334859, “MIR156-Targeted SPL9 Is Phosphorylated by SnRK2s and Interacts With ABI5 to Enhance ABA Responses in Arabidopsis” (Frontiers in Plant Science, 2021).

Legend:
[1] = target: T1, nLUC-ABI5 (Arabidopsis thaliana) (UniProt Q9SJN0); assay: split reporter; firefly luciferase complementation imaging (LCI); nLUC and cLUC fusions co-injected by Agrobacterium GV3101 into N. benthamiana leaves; LUC activity imaged with NightSHADE LB 985
T1 sequence: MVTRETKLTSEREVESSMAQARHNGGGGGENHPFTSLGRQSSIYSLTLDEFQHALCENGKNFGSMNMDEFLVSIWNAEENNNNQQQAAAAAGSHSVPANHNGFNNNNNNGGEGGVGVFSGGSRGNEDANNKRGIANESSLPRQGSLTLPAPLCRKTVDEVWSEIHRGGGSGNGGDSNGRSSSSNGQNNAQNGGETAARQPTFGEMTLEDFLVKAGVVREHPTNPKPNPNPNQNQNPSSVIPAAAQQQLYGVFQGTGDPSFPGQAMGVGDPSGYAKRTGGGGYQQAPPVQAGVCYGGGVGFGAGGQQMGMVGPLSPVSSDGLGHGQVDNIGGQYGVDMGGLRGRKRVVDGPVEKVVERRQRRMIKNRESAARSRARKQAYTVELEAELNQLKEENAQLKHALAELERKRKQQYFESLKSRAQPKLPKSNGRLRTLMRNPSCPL

[2] = target: T2, nLUC-SnRK2.6 (Arabidopsis thaliana) (UniProt Q940H6); assay: as above
T2 sequence: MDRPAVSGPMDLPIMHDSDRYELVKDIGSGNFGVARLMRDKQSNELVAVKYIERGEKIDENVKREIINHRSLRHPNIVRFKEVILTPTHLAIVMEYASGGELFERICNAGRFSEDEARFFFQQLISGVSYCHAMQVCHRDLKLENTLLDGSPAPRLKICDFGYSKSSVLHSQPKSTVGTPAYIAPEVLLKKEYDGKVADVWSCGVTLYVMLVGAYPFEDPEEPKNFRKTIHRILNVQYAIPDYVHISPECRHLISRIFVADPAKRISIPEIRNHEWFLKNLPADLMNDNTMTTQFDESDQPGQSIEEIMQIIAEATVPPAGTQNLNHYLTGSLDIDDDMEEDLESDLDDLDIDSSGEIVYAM

- binding [1]: binds
- binding [2]: binds
Substance: SPL9 C (carboxyl-terminal truncated version), fused to cLUC (Arabidopsis thaliana) (domain or fragment)

No constants are given. Whether binding was seen depends on the method and setting. Binding seen in cells or lysates may run through a third protein. Binding can be weak; no strength is given. Tags and fused reporters may be left off the sequences shown.
